Measured values: patent publication US20160194391A1
No constants are given. Whether binding was seen depends on the method and setting. Some entries that bind do so weakly or less than the wild type.

Amino acid sequences for entries named in this document (tags omitted). A change or cut given only in a name is not applied to a line headed by its entry.
UniProt P48091: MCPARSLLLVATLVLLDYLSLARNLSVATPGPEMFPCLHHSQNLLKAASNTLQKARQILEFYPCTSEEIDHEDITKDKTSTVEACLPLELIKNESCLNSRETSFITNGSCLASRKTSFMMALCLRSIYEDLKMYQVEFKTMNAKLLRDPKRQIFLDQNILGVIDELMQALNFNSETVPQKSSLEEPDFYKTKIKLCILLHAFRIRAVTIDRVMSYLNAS
UniProt P48095: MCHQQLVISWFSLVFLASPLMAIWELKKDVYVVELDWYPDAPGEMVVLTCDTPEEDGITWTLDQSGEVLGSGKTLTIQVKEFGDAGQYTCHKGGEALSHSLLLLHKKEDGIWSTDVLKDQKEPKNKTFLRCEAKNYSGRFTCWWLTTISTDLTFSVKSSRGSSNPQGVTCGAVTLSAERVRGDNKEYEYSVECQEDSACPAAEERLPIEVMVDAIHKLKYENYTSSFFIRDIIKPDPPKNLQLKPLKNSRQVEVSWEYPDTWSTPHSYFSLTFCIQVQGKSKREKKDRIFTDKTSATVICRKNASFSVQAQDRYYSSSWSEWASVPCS
UniProt P29460: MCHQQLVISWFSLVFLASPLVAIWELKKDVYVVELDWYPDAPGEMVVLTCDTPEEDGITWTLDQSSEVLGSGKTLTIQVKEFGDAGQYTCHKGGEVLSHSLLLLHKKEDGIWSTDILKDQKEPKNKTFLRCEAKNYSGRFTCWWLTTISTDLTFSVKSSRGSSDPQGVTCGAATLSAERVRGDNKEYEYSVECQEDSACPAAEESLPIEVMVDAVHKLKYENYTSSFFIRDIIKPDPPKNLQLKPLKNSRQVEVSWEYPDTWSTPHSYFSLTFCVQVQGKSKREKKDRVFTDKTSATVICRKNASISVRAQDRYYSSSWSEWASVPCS
UniProt Q9NPF7: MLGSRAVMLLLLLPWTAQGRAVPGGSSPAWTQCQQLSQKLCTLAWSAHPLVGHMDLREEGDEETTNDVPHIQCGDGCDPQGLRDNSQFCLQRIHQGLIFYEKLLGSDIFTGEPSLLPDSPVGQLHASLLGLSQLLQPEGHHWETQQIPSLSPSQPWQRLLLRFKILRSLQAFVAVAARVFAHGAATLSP

Columns and labels:
[1] = target: T1, monkey IL-12 (macaque) (macaque) (UniProt P48091+P48095); assay: ELISA on plate-coated monkey IL-12
[2] = target: T1, monkey IL-12 (macaque) (macaque); assay: ELISA, monkey IL-12 (macaque) coated on the plate (FIG. 36A, second panel)
[3] = target: T1, monkey IL-12 (macaque) (macaque); assay: ELISA, monkey (macaque) IL-12 coated on the plate; antibody concentration not given [Binding to Monkey IL-12]
3×FLAG-IL-6 (human) = assay: ELISA on plate-coated recombinant IL-6, HEK293 supernatants of chimeric IgG
[4] = target: human dimeric IL-23 (eBiosciences 34-8239) (human) (UniProt P29460+Q9NPF7); assay: SPR

Binder | binding [1] | binding [2] | binding [3] | binding (3×FLAG-IL-6 (human)) | further results
49B7 chimeric mAb (antibody, V domains shown) VH: QSLEESGGRLVTPGGSLTLTCTVSGIDLSDYDMSWVRQAPGKGLEWIGIVYDIGTIYYAPWAEGRFTISKTSTTVDLKMSSLTTEDTATYFCAREAPGYSDGDIWGPGTLVTVSS VL: ALVMTQTPSSVSAAVGGTVTINCQASETVDNNKRLSWYQQKPGQPPKLLIYGAATLASGVPSRFKGSGSGAHFTLTISNVQREDAATYVCGGYKDSTDVGFGGGTELEILR | binds | binds | binds | – | –
31A12 chimeric mAb (antibody, V domains shown) VH: QSLEESGGRLVTPGTPLTLTCTASGFSLSSYWMTWVRQAPGGGLEWIGTIATSSTYYASWAKGRFTISRTSTTVDLKMTSLTTEDTATYFCARGLTTDYDLDLWGPGTLVTVSS VL: LVMTQTPASVSAAVGGTVTINCQASEDIESYLAWYQQKPGQRPKLLIYSASTLTSGVPSRFKGSGSGKQFTLTISGVQREDAATYYCLGADDTTTVFGGGTKVVVVR | binds | binds | binds | – | –
22H8 chimeric mAb (antibody, V domains shown) VH: QSLEESGGRLVTPGTPLTLTCTVSGFSLSTYTMNWVRQSPGKGLEWIGAISYDGGTAYANWAKGRFTISKTSTTVDLQIASPTTEDTATYFCARGFYVYAYIGDAFDPWGPGTLVTVSS VL: AVLTQTPSPVSATVGGTVTIKCQSSQTVYKNNLLSWYQQKPGQPPKLLIYLASTLASGVPSRFSGSGSGTQFTLTISGVQCDDAATYYCLGGYDDDADTAFGGGTEVVVVR | binds | binds | binds | – | –
13A8 chimeric mAb (antibody, V domains shown) VH: QSVEESGGRLVTPGTPLTLTCTVSGIDLSSYDMSWVRQAPGKGLEWIGYIYTDSSTWYANWAKGRFTISKTSSTTVDLKMTSLTTEDTATYFCAKGSTDYAFDTRLDLWGPGTLVTVSS VL: NIVMTQTPSPVSGAVGGTVTINCQASQSISNELSWYQQKPGQPPRLLIYRASTLTSGVSSRFKGSGAGTQFTLTISGVECADAATYYCQQGYNSNDVDNVFGGGTKVVVVR | – | – | – | binds | –
28D2 chimeric mAb (antibody, V domains shown) VH: QSLGESGGRLVTPGTPLTLTCTVSGLSLSKNAIAWVRQAPGKGLEWIGIIYAGGATTYASWAKGRFTISKSSTTVDLKITSPTTVDTATYFCAREYAGDSYYTGYTQLDLWGPGTLVTVSS VL: ALVMTQTPASVSAAVGGTVTINCQASEDLFSSLAWFQQKPGQPPKLLIYSASTLASGVPSRFSGSGSGTEFTLTISDLECADAATYYCLGLYYYLTPDPIYGFGGGTKVVVV | – | – | – | binds | –
18D4 chimeric mAb (antibody, V domains shown) VH: QSVEESGGRLVTPGTPLTLTCTVSGFSLSSYAMTWVRQAPGKGLEWIGTSYVYSGDTWYASWVKGRFTISKTSTTVDLKITSPTTEDTATYFCARVGDYDDYGAHDVFDSWGPGTLVTVSS VL: YDMTQTPASVEVAVGGTVTIKCQASESISSWLSWYQQKPGQRPKLLLYRASTLASGVSSRFSGSGYGTEFTLTISGVQCEDAATYYCQQGYTGGNVDNAFGGGTKVVVVR | – | – | – | binds | –
8C8 chimeric mAb (antibody, V domains shown) VH: QSVEESGGRLVAPGGSLTLTCKASGFSLSSSGVSWVRQAPGKGLEWIGYVSIADTISYANWAKGRFTISKTSSTTVDLEMTSLTTEDTATYFCVRGFITYSGVLWGPGTLVTVSS VL: QVLTQTPASVSAAVGGTVTISCQSSQNVYSNAFLSWYQQKPGQPPKLLIYKASKLASGVPSRFSGSGSGTQFTLTISGVQCDDAATYYCAGEYEGGIGTFGGGTEVVVVR | – | – | – | binds | –
9H4 chimeric mAb (antibody, V domains shown) VH: QSLEESGGRLVTPGTPLTLTCTASGFSLSSYDMSWVRQAPGKGLEWIGYIYTDTSTYYANWAKGRFSISKTSTTVDLKMTSLTAEDTATYFCAKGSTDYAFDTRLDLWGPGTLVTVSS VL: YDMTQTPASVEVAMGGTVTIKCQASQSISNELSWYQQKPGQPPKLLIYRTSTLASGVSSRFKGSGSGTEYTLTISGVECADAATYYCQQGYNSNDVDNVFGGGTEVVVVR | – | – | – | binds | –
9C8 chimeric mAb (antibody, V domains shown) VH: QSVEESGGRLVTPGTPLTLTCTVSGIDLSSYDMSWVRQAPGKGLEWIGYIYTDSSTYYANWAKGRFTISKTSTTVDLKMTSLTTEDTATYFCAKGSTDYAFDTRLDLWGPGTLVTVS VL: AYDMTQTPASVEVAMGGTVTIKCQASQSISNELSWYQQKPGQPPKLLIYRTSTLASGVSSRFKGSGSGTEYTLTISGVECADAATYYCQQGYNSNDVDNVFGGGTKVVVVR | – | – | – | binds | –
31A12 humanized scFv (mammalian expressed) (scFv) scFv: DIQLTQSPSFLSASVGDRVTITCQASEDIESYLAWYQQKPGKAPKLLIYSASTLTSGVPSRFSGSGSGTEFTLTISSLQPEDFATYYCLGADDTTTVFGGGTKVEIKGGGGSGGGGSGGGGSGGGGSEVQLVESGGGLVQPGGSLRLSCTASGFSLSSYWMTWVRQAPGKGLEWVGTIATSSTYYASWAKGRFTISRDNSKNTLYLQMNSLRAEDTAVYYCARGLTTDYDLDLWGQGTLVTVSSGPPPPHHHHHH | – | – | – | – | binding [4]: binds
